Data as given in US20170007709A1, “GLYCOAMINO ACID AND USE THEREOF” (AJINOMOTO CO., INC., priority 2014, published 2017).
Entries after “also recorded” stand apart in the source; their conditions may differ.

Experiment: Sensory evaluation of bitter taste
Conditions: 0.1 ml of 0.5% (5000 ppm) solution in water dropped on the tongue, compared with leucine

Compound | sensory evaluation of bitter taste, test subject A | sensory evaluation of bitter taste, test subject B | sensory evaluation of bitter taste, test subject C
CC(C)C[C@H](NC(=O)OC1O[C@H](CO)[C@@H](O)[C@H](O)[C@H]1O)C(=O)O (stereo partly drawn) [Glc-Leu, N-(α/β-D-glucopyranosyloxycarbonyl)-L-leucine] | No bitter taste | No bitter taste; also recorded: faintly sweet | No bitter taste
CC(C)C[C@H](NC(=O)OC1O[C@H](CO)[C@@H](O)[C@H](O)[C@H]1O)C(=O)NC1O[C@H](CO)[C@@H](O)[C@H](O)[C@H]1O (stereo partly drawn) [Glc-Leu-Glc, N—(N-(α/β-D-glucopyranosyloxycarbonyl)-L-leucyl)-β-D-glucopyranosylamine] | No bitter taste | No bitter taste; also recorded: faintly sweet | No bitter taste
